{"source": "PubChem BioAssay AID1224830 (NIAID, 2016)", "assay": "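Genes whose knock-down alters the TNF-alpha reporter response to LPS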 (primary screen)", "system": "human THP-1 monocytic leukaemia cells, TNF dual-luciferase reporter clone, PMA-differentiated to macrophage-like cells", "reagents": "siRNA pool against human genes, 50 nM", "duration": "LPS for 4 h, given about 3 days after siRNA transfection", "conditions": "bacterial LPS (TLR4 ligand), 10 ng/ml", "detection": "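TNF firefly reporter luminescence divided by renilla, normalised to the plate median, then turned into a robust z-score for each replicate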", "reading the numbers": "TNF reporter robust z-score: higher = stronger TNF reporter response to LPS", "active means": "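Each well counts as active if its z-score is over 2.8 or under -1.5; controls are left without a call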", "note": "In all, the deposit lists about 18,000 reagents; shown is a random part of them. About 2,900 of them (16%) were called active. 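Calls are made per well; low scores hint the gene aids the LPS response, high scores that it dampens it.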 Repeated entries: four replicate wells of each siRNA pool. No sequences are given here."}
{"gene symbol":"SYP","TNF reporter robust z-score":-1.17,"Outcome":"inactive"}
{"gene symbol":"SYP","TNF reporter robust z-score":-0.45,"Outcome":"inactive"}
{"gene symbol":"SYP","TNF reporter robust z-score":-1,"Outcome":"inactive"}
{"gene symbol":"SYP","TNF reporter robust z-score":-0.3,"Outcome":"inactive"}
{"gene symbol":"KRABD2","TNF reporter robust z-score":1.36,"Outcome":"inactive"}
{"gene symbol":"KRABD2","TNF reporter robust z-score":1.39,"Outcome":"inactive"}
{"gene symbol":"KRABD2","TNF reporter robust z-score":0.57,"Outcome":"inactive"}
{"gene symbol":"KRABD2","TNF reporter robust z-score":1.54,"Outcome":"inactive"}
{"gene symbol":"ANP32E","TNF reporter robust z-score":0.9,"Outcome":"inactive"}
{"gene symbol":"ANP32E","TNF reporter robust z-score":-0.3,"Outcome":"inactive"}
{"gene symbol":"ANP32E","TNF reporter robust z-score":-0.11,"Outcome":"inactive"}
{"gene symbol":"ANP32E","TNF reporter robust z-score":0.04,"Outcome":"inactive"}
{"gene symbol":"ABCA8","TNF reporter robust z-score":11.4,"Outcome":"active"}
{"gene symbol":"ABCA8","TNF reporter robust z-score":0.19,"Outcome":"inactive"}
{"gene symbol":"ABCA8","TNF reporter robust z-score":-0.28,"Outcome":"inactive"}
{"gene symbol":"ABCA8","TNF reporter robust z-score":0.17,"Outcome":"inactive"}
{"gene symbol":"DCST2","TNF reporter robust z-score":3.87,"Outcome":"active"}
{"gene symbol":"DCST2","TNF reporter robust z-score":0.94,"Outcome":"inactive"}
{"gene symbol":"DCST2","TNF reporter robust z-score":-0.93,"Outcome":"inactive"}
{"gene symbol":"DCST2","TNF reporter robust z-score":0.16,"Outcome":"inactive"}

Laid out differently: entries from further up.
gene symbol	TNF reporter robust z-score	Outcome
SYP	-0.45	inactive
SYP	-1	inactive
